Experimental data: PubChem BioAssay AID652054 (National Center for Advancing Translational Sciences (NCATS), 2013)
Among all 360,000 compounds or so, about 9,100 (2.5%) were called active. Inconclusive results, whose numbers are uncertain, are shown with a selection of clear calls. Cut-off read from the data, not from the text of the source: active = max response below about -50%; inconclusive = no clear call, values can overlap the other calls; inactive = above that.

Chains of the proteins cited; added tags and fusions are not shown.
UniProt P35462, whole entry, looked up: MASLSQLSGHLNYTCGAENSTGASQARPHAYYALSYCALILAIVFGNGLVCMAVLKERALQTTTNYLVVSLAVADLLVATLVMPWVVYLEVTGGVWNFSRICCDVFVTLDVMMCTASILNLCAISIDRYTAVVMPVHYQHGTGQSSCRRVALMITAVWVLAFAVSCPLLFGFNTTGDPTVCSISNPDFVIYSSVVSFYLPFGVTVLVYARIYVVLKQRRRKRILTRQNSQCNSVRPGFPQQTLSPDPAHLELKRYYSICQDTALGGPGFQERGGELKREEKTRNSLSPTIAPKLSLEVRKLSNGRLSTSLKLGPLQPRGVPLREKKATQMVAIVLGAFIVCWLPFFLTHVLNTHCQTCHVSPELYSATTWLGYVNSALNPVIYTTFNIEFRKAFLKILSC

What follows are molecules tested against D(3) dopamine receptor (Homo sapiens) (UniProt P35462) (assay: qHTS of D3 Dopamine Receptor Antagonist: qHTS). Conditions: D3R cells, DiscoveRx beta-arrestin luminescence, antagonist mode; hits give low values.
How it was run: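 Cells plated overnight at 1500 cells/well, then exposed to library compounds with dopamine controls for 90 minutes at 37 degrees C. DiscoveRx reagent added for 30–60 minutes at room temperature; luminescence read, quantitative HTS format.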
% is set by controls: 0 for no effect and ±100 for the full control effect.

Max response, negative = inhibition, inactive:
O=C(Cc1ccccc1)NCCCN1CCN(CCCNC(=O)Cc2ccccc2)CC1 6.37%
NS(=O)(=O)c1ccc(CNC(=O)c2ccc(Cl)c([N+](=O)[O-])c2)cc1 -8.58%
Cc1c(-c2ccccc2)oc2c(C(=O)N3CCN(c4ccc([N+](=O)[O-])cc4)CC3)cccc2c1=O 15.3%
O=C1CC(SC2=NCCS2)C(=O)N1c1ccc(Br)cc1 (stereo unspecified) 6.71%
O=C(O)Cn1cc(/C=N/Nc2ccc([N+](=O)[O-])cn2)c2ccccc21 0%
O=S(=O)(c1ccc(Cl)cc1)N1CCN(Cc2ccc(O)c3ncccc23)CC1 -11.5%
Fc1cccc(Cc2c(-c3ccco3)nc3c(Cl)cc(C(F)(F)F)cn23)c1 -1.34%
COc1ccc2nc(SCC(=O)NC3CCCC3)c(C)cc2c1 -6.83%
COc1ccc(/C=C2\N=C(c3ccccc3Cl)NC2=O)cc1 -5.22%
O=C(c1ccc([N+](=O)[O-])c(CS(=O)(=O)c2ccc(Cl)cc2)c1)N1CCCCC1 3.4%
C[C@@H]1CN([C@@H](C)CO)C(=O)CCCn2nncc2CO[C@H]1CN(C)Cc1ccc(Oc2ccccc2)cc1 -7.59%
CCc1c(C)nc2cc(-c3ccc(OC)c(OC)c3)nn2c1N1CCCC1 7.99%
COc1ccc(-c2nc(CSCC(=O)NC3CC3)c(C)o2)cc1OC -5.47%
Cc1c(C(=O)Nc2ccccc2)sc2ncn(CC(=O)N3CCCCC3)c(=O)c12 4.25%
CCCCCCCCN1[C@@H](CC(=O)OCC)c2cc(F)ccc2S1(=O)=O 7.87%
CC(=O)Nc1cc(C(F)(F)F)ccc1Oc1cccc(Br)c1 30.1%
O=C(Nc1ccc(OCc2ccccc2)cc1)Nc1nnc([C@@H]2C[C@H](O)[C@@H](CO)O2)s1 7.14%
O=C(CCCOc1ccccc1)N1CCc2ccccc2C1 -1.01%
O=c1cc[nH]c2c1ccc1cccnc12 0.946%
Cc1nn(CC(=O)N2CCOCC2)c(C)c1[N+](=O)[O-] 2.34%
Cc1cccc(OCc2n[nH]c(=S)n2C2CCCCC2)c1 -10.3%
COc1ccc(-c2sc3ccccc3c2-c2ccc(O)cc2)cc1 3.36%
O=C(CSc1nnnn1Cc1ccccc1)c1ccc(F)cc1 5.38%
COc1cccc(C(NC(C)=O)c2nc(-c3cccc(C(C)C)c3)cs2)c1 (stereo unspecified) 26.1%
CC(C)CC(=O)Nc1nnc(S(=O)(=O)N2CCc3ccccc32)s1 -14.1%
Cc1onc(-c2c(Cl)cccc2Cl)c1C(=O)Nc1ccc(Cl)cn1 -27.8%
Cc1ccc(C(C[N+](=O)[O-])Sc2ccc(N)cc2)cc1 (stereo unspecified) 6.11%
Cc1ccc(C)c(S(=O)(=O)N2CCCCC2CCNC(=O)C(=O)NC2CCCC2)c1 (stereo unspecified) -13.8%
O=C1/C(=N\S(=O)(=O)c2cccs2)C([n+]2ccccc2)=C([O-])c2ccccc21 -17.1%
CCOc1ccc(NC(=O)CN2CCN(C3c4ccccc4-c4ccccc43)CC2)cc1 4.27%
CC(=O)N(C)c1ccc(N=Nc2c(C)[nH]n(C(N)=S)c2=O)cc1 -20.2%
Cc1cc(S(=O)(=O)N2CCCC2)ccc1OCC(=O)NCc1ccccn1 3.55%

Max response, negative = inhibition, inconclusive:
COc1ccc(CCNC(=O)c2ccc(CN3CCC(Cc4ccccc4)CC3)cc2)cc1OC -34.5%
O=C1/C(=C/N(C(=O)c2ccco2)c2ccc(Cl)cc2)Sc2ccccc21 -33.7%
COc1ccc(N2CCN(CCCNC(=O)CN3CCN(Cc4ccccc4C)C3=O)CC2)cc1 -36.6%
CCN(CC)CCn1c2c(c(SCC(=O)Nc3ccccc3Cl)nc1=O)CCCC2 -46.4%
COCc1cc(CN2CCCC(C(=O)Nc3ccc(-c4ccco4)cc3)C2)ccc1OC (stereo unspecified) -33.7%
Cc1ccc(-c2nn(-c3ccccc3)cc2C=C2SC(=S)N(CCS(=O)(=O)O)C2=O)cc1 -46.4%
CCCCc1ccc(NC(=S)NCCc2ccc(F)cc2)cc1 -39.2%
c1ccc(-c2ccccc2OCCN2CCCCC2)cc1 -34%
O=C(c1ccc(F)cc1)N1CCN(c2cc(=O)[nH]nc2-c2ccccc2)CC1 -36.7%
Cc1cc(Nc2ccccc2)nc(NCc2ccccc2)n1 -42.5%
CC(NC(=O)CCl)c1ccc(Cl)c(Cl)c1 (stereo unspecified) -43.6%
Cc1[nH]nc2c1C(c1ccc(OC(=O)c3ccco3)cc1)C(C#N)=C(N)O2 (stereo unspecified) -38.8%
O=C(NC(=S)Nc1cccnc1)c1cccs1 -38.6%
COCCCNC(=O)/C(C#N)=C/c1c(N2CCN(c3ccccc3)CC2)nc2ccccn2c1=O -46.4%
CCOC(=O)c1ccc[n+](CC(=O)Nc2cc(C(F)(F)F)ccc2Cl)c1 -33.3%
CC[C@]12c3[nH]c4cc(-c5ccco5)ccc4c3CCN1C(=O)[C@@H](CC(=O)NCCCOC)C[C@@H]2C(=O)N1CCN(C(=O)C2CC2)CC1 -44.5%
O=C(c1c(F)cccc1F)N(Cc1cccs1)C1CCCC1 -41.3%
O=C(Nc1cccc(C(F)(F)F)c1)Nc1ccc(N2CCCC2)c(S(=O)(=O)Nc2ccccc2Cl)c1 -48.1%
CCCCn1c(SCC(=O)N2c3ccccc3Sc3ccccc32)nc2c1c(=O)n(C)c(=O)n2C -35.9%
Nc1sccc1C(=O)N1CCN(c2ccccc2)CC1 -40.8%
CCc1cccc(CC)c1N1C(=O)COCC1=O -31.3%
CC1(C)CC(=O)C2=C(C1)Oc1ncn(Cc3ccco3)c(=N)c1C2c1ccccc1 (stereo unspecified) -49.6%
Cc1ccc(S(=O)(=O)N2[C@@H](c3cccc(Cl)c3)C(C(=O)O)=CC[C@H]2c2cccc(C)c2)cc1 -35.9%
COc1cc(CNCCc2ccccc2F)ccc1OCc1ccc(Cl)nc1 -31.7%
Nc1cc(S(=O)(=O)C(F)(F)F)ccc1C(=O)O -40.1%
O=C(N/N=C/c1ccc(O)cc1)c1ccc(COc2cc(Cl)ccc2Cl)o1 -49.2%
CCCCN1C(=O)C(CC(=O)NCc2cccc3ccccc23)CC(C(=O)N(C)C)=C1C (stereo unspecified) -37.1%
O=C(NCc1ccco1)c1cccnc1-c1nc2ccccc2s1 -30%
CC1CCCN(CC(O)COc2ccc(-c3ccccc3)cc2)C1 (stereo unspecified) -31.6%
CCCCCC/C=N/Nc1nnc(Cc2ccc(OC)c(OC)c2)c(=O)[nH]1 -36.8%
CCN1C(=NCCOC)N[C@@H](c2cccc(C(F)(F)F)c2)C(C(=O)OC)=C1C -30.6%
CCN(c1ccccc1)S(=O)(=O)c1ccc(C(=O)N(C)Cc2cccs2)cc1 -34.8%
O=C(c1ccccc1)N1CCN(C2CC3CCC2C3)CC1 (stereo unspecified) -36.1%
COc1ccc(OCC(O)CN2CCN(c3ncccn3)CC2)cc1 (stereo unspecified) -30.6%
Oc1c(Cl)cc(Cl)cc1CNn1cnnc1 -30.1%
Cc1cccc(C)c1NC(=O)CNC(=O)c1ccc(COc2ccccc2)o1 -48.4%
CC(C)C[C@@H](CN1CCCC1CN1C(=S)NC[C@@H]1Cc1ccc(O)cc1)N1C[C@H](Cc2ccc(O)cc2)N(CC2CCCCCC2)C1=S (stereo partly specified) -33.4%
CC(=O)NC(c1ccccc1)c1nc(-c2cccc(F)c2)cs1 (stereo unspecified) -33%
CC1CCN(c2c(NCc3ccc(C(=O)N(C)C4CCCCC4)cc3)c(=O)c2=O)CC1 -33.5%
O=C(CN1CCN(C(c2ccccc2)c2ccccc2)CC1)N1N=CCC1c1ccccc1 (stereo unspecified) -37%
O=C(c1ccc(NS(=O)(=O)c2ccc3[nH]c(=O)[nH]c3c2)cc1)N1CCN(c2ccccc2)CC1 -32.7%

Some of these compounds in order of molar mass, rising.
Max response, negative = inhibition, inconclusive:
O=C(N/N=C/c1ccc(O)cc1)c1ccc(COc2cc(Cl)ccc2Cl)o1 -49.2%
CC1CCN(c2c(NCc3ccc(C(=O)N(C)C4CCCCC4)cc3)c(=O)c2=O)CC1 -33.5%
COc1ccc(CCNC(=O)c2ccc(CN3CCC(Cc4ccccc4)CC3)cc2)cc1OC -34.5%
O=C(Nc1cccc(C(F)(F)F)c1)Nc1ccc(N2CCCC2)c(S(=O)(=O)Nc2ccccc2Cl)c1 -48.1%
CC[C@]12c3[nH]c4cc(-c5ccco5)ccc4c3CCN1C(=O)[C@@H](CC(=O)NCCCOC)C[C@@H]2C(=O)N1CCN(C(=O)C2CC2)CC1 -44.5%

Following part.

Max response, negative = inhibition, active:
COc1cc([N+](=O)[O-])cc(/C=N/NC(=O)c2cc(C)nc3ccccc23)c1O -56.1%
O=C(/C=C/c1ccccc1)N1CCN(CCN2C(=O)c3cccc4cccc(c34)C2=O)CC1 -95.9%
Cc1cccc(N2CCN(Cc3ccoc3)CC2)c1C -87.5%
O=C(N[C@@H](Cc1ccccc1)C(=O)CCl)OCc1ccccc1 -94.5%
O=C1c2ccccc2NC(c2ccc3c(c2)OCO3)N1O (stereo unspecified) -57.3%
Cc1ccc(OCC(O)Cn2c(=N)n(CCN3CCCCC3)c3ccccc32)cc1 (stereo unspecified) -63.1%
O=C(CSC1=Nc2ccccc2C2CC=NN12)Nc1ccc2c(c1)OCO2 (stereo unspecified) -50.2%
COc1cc2[nH]c(=O)n(Cc3ccc(C(=O)NC4CCN(Cc5ccccc5)CC4)cc3)c(=O)c2cc1OC -79.7%
OC1(Cc2cc(-c3ccccc3)no2)CCN(CCCc2ccccc2)CC1 -75.1%
CCN1CCN(c2ncnc3scc(-c4ccc(OC)cc4)c23)CC1 -61.4%
CC1(Oc2ccc(Cl)cc2)CCN(Cc2csc3ccccc23)C1 (stereo unspecified) -85.5%
COc1ccc(/C=C/C(=O)c2ccc(Cl)s2)cc1O -72.1%
COC(=O)C(Cc1ccccc1)OS(N)(=O)=O (stereo unspecified) -57.7%
